This note sets out measurements from paper PMC11018839, “ANKFY1 bridges ATG2A-mediated lipid transfer from endosomes to phagophores” (Cell Discovery, 2024).

Protein sequences, listed by entry. Tags and fused reporters are not part of them.
UniProt Q2TAZ0: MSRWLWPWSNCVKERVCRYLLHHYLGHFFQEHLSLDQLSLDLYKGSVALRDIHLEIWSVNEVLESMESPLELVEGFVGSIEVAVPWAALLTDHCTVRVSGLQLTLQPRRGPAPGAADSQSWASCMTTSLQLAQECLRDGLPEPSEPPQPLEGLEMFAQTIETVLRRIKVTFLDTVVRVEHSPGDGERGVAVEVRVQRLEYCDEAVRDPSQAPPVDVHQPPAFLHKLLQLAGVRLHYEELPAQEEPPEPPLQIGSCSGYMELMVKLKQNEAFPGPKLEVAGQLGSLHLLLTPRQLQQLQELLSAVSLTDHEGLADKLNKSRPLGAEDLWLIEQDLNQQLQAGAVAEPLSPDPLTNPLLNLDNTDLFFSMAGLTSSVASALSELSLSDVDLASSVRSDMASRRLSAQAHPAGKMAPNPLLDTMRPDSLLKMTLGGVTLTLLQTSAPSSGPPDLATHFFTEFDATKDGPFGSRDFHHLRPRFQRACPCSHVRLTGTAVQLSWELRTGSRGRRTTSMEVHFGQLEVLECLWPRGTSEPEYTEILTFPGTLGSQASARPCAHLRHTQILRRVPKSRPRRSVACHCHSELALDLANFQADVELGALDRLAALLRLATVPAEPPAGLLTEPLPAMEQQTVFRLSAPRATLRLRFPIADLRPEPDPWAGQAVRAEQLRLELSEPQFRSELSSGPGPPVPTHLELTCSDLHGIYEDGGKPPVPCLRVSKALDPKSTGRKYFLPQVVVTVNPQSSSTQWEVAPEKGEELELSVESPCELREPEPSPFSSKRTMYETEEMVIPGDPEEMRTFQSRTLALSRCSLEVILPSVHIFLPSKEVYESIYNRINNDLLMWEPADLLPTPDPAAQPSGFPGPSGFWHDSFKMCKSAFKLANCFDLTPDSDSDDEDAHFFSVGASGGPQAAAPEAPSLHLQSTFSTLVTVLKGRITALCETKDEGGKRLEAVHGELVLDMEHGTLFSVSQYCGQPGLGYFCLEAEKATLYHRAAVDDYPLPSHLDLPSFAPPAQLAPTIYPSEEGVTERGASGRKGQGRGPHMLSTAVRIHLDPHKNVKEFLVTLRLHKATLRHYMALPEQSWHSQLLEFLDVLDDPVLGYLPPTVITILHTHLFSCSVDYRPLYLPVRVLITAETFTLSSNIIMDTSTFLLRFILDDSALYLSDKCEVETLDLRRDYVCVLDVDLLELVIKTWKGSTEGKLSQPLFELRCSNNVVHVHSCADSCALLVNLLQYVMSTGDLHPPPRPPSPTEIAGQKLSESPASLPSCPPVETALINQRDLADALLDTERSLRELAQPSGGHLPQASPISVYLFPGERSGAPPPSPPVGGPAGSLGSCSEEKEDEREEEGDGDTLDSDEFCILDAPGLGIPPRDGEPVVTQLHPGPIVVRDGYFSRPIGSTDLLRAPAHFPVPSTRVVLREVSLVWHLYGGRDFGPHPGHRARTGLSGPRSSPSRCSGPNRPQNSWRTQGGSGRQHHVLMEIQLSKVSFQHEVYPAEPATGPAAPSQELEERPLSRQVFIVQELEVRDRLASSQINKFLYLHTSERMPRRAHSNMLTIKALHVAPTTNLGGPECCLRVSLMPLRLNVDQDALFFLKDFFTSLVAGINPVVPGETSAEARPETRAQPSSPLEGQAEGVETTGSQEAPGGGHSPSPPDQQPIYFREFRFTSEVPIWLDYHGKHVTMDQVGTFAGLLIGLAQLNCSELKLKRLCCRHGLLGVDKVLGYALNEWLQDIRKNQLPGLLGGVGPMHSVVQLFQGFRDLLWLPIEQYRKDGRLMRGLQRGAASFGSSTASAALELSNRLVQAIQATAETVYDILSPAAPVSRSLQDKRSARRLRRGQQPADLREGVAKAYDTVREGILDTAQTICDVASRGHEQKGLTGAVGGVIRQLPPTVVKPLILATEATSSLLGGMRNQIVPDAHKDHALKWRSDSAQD
UniProt Q9Y484: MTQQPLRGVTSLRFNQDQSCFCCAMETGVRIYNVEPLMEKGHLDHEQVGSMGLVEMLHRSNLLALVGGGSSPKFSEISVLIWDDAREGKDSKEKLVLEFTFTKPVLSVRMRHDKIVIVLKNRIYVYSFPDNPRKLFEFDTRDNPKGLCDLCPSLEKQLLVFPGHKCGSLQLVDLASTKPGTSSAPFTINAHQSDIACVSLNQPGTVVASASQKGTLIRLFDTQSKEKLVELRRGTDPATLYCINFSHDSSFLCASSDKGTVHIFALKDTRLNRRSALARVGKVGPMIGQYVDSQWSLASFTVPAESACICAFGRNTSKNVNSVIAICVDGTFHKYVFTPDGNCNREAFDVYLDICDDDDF

Read-outs that look alike come from different tables or passages of the source. These are yes or no findings as the source states them, for the method shown. Binding seen in cells or lysates may run through a third protein. Here binding means that the protein was enriched with, or labelled near, the bait; the list need not be complete.

The target in assay [1] is ZZ-TEV-Flag-tagged ATG2A (bait of the tandem affinity purification) (human) (UniProt Q2TAZ0). As to the kind of experiment: affinity purification with mass spectrometry; tandem affinity purification of ZZ-TEV-Flag-ATG2A from cells that stably express it at endogenous level (1.5 ng/mL doxycycline); 20 mM Tris-HCl pH 7.5, 150 mM NaCl, 0.5% NP-40, 1 mM EDTA; eluate run on SDS-PAGE and analysed by MS; under autophagy stimulation according to the discussion.

The target is the same in assay [2]. Described as above. The source holds these as a separate data set.

Take “WIPI4, endogenous (from UniProt Q9Y484 1-360)”: in assay [1], the binding result is “binds”.

B1: purified Flag-ANKFY1 full-length protein (natural protein, human, UniProt Q9P2R3 1-1169, looked up)
chain: MAEEEVAKLEKHLMLLRQEYVKLQKKLAETEKRCALLAAQANKESSSESFISRLLAIVADLYEQEQYSDLKIKVGDRHISAHKFVLAARSDSWSLANLSSTKELDLSDANPEVTMTMLRWIYTDELEFREDDVFLTELMKLANRFQLQLLRERCEKGVMSLVNVRNCIRFYQTAEELNASTLMNYCAEIIASHWDDLRKEDFSSMSAQLLYKMIKSKTEYPLHKAIKVEREDVVFLYLIEMDSQLPGKLNEADHNGDLALDLALSRRLESIATTLVSHKADVDMVDKSGWSLLHKGIQRGDLFAATFLIKNGAFVNAATLGAQETPLHLVALYSSKKHSADVMSEMAQIAEALLQAGANPNMQDSKGRTPLHVSIMAGNEYVFSQLLQCKQLDLELKDHEGSTALWLAVQHITVSSDQSVNPFEDVPVVNGTSFDENSFAARLIQRGSHTDAPDTATGNCLLQRAAGAGNEAAALFLATNGAHVNHRNKWGETPLHTACRHGLANLTAELLQQGANPNLQTEEALPLPKEAASLTSLADSVHLQTPLHMAIAYNHPDVVSVILEQKANALHATNNLQIIPDFSLKDSRDQTVLGLALWTGMHTIAAQLLGSGAAINDTMSDGQTLLHMAIQRQDSKSALFLLEHQADINVRTQDGETALQLAIRNQLPLVVDAICTRGADMSVPDEKGNPPLWLALANNLEDIASTLVRHGCDATCWGPGPGGCLQTLLHRAIDENNEPTACFLIRSGCDVNSPRQPGANGEGEEEARDGQTPLHLAASWGLEETVQCLLEFGANVNAQDAEGRTPIHVAISSQHGVIIQLLVSHPDIHLNVRDRQGLTPFACAMTFKNNKSAEAILKRESGAAEQVDNKGRNFLHVAVQNSDIESVLFLISVHANVNSRVQDASKLTPLHLAVQAGSEIIVRNLLLAGAKVNELTKHRQTALHLAAQQDLPTICSVLLENGVDFAAVDENGNNALHLAVMHGRLNNIRVLLTECTVDAEAFNLRGQSPLHILGQYGKENAAAIFDLFLECMPGYPLDKPDADGSTVLLLAYMKGNANLCRAIVRSGARLGVNNNQGVNIFNYQVATKQLLFRLLDMLSKEPPWCDGSYCYECTARFGVTTRKHHCRHCGRLLCHKCSTKEIPIIKFDLNKPVRVCNICFDVLTLGGVS
notes: ANKFY1, human, full length (ANKFY1-FL), N-terminal Flag tag, pCDNA4-TO vector; also called ANKFY1-FL; ANKFY1-Flag; source: 293S cells, purified (anti-Flag M2 resin, eluted with 3x Flag peptide); not shown: Flag, N-terminal, kept
For B1, the binding entry in assay [2] is on record as “binds”.
